The target of experiment [1] is Myc-tagged PIPKIγi5 (human) (UniProt O60331). Description: co-IP; two tagged proteins coexpressed in cells (HEK-293 where stated); immunoprecipitation with HA or Myc antibody and protein G-Sepharose, 4 h at 4 °C; lysis in 25 mM Hepes pH 7.2, 150 mM NaCl, 0.25% NP-40, 1 mM MgCl2; Western blot. Background: Immunoblotting shows a protein as a band on a membrane.
Experiment [2] concerns the target endogenous YAP1 (human (endogenous in CAL27)) (UniProt P46937). Description: co-IP; endogenous YAP1 immunoprecipitated with YAP1 antibody from CAL27 cell lysates; endogenous PIPKIγi5 detected by Western blot.
The target of experiment [3] is HA-tagged PIPKIγi5 (type I gamma phosphatidylinositol phosphate kinase i5) (human) (UniProt O60331). Description: co-IP; two tagged proteins coexpressed in cells (HEK-293 where stated); immunoprecipitation with HA or Myc antibody and protein G-Sepharose, 4 h at 4 °C; lysis in 25 mM Hepes pH 7.2, 150 mM NaCl, 0.25% NP-40, 1 mM MgCl2; Western blot.
The target of experiment [4] is HA-tagged PIPKIγi5 truncation mutant PIPKIγi5_675 (human) (UniProt O60331). The description is as above.
For experiment [5], the target named is Myc-tagged PIPKIγi2 (human) (UniProt O60331). The description is as above.
Experiment [6] deals with purified recombinant FLAG-YAP1 (YAP1 human recombinant protein, OriGene) (human) (UniProt P46937). In words: pull-down; in vitro binding assay: 1 μg FLAG-YAP1 and 1 μg HA-PIPKIγi5 mixed in 20 mM Tris-HCl pH 7.5, 0.3 M NaCl, 1 mM DTT, 4 °C 2 h, then anti-FLAG magnetic beads 4 °C 6 h; Western blot; both purified.
The target of experiment [7] is purified recombinant HA-PIPKIγi5 (human) (UniProt O60331). In words: solid-phase binding assay; GST-14-3-3 or HA-PIPKIγi5 (1 μg) coated on MaxiSorp 96-well plates, blocked with 1% fatty acid-free BSA in PBS, with or without phosphoinositide (PI4,5P2; control PI3,5P2) 30 min, then 1 μg FLAG-YAP1 1 h at room temperature; bound proteins eluted and blotted; both purified.

Chains of the proteins cited; added tags and fusions are not shown. Lines headed by an entry give the natural chain unless they say otherwise; changes in a name come on top. A line that says so, or that is headed by a name, gives the form on record, which may keep a tag or linker.
UniProt O60331: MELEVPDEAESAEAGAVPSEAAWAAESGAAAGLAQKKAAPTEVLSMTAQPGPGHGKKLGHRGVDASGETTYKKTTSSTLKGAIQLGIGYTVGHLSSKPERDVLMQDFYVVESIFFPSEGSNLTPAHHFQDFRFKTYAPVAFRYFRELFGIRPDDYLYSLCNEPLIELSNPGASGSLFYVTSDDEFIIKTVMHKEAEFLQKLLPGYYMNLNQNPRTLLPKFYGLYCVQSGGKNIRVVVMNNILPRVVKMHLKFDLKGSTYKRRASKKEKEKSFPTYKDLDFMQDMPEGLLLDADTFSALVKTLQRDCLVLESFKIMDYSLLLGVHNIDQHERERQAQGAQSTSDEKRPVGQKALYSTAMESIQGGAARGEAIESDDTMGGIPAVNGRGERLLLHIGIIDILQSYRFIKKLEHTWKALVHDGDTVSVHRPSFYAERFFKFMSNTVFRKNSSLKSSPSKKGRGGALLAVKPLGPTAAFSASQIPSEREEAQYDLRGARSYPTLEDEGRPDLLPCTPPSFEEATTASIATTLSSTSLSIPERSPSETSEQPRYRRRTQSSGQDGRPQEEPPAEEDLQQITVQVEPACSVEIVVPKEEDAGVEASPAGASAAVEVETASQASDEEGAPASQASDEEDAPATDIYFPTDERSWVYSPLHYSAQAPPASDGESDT
purified recombinant HA-PIPKIγi5 (O60331-3, form named): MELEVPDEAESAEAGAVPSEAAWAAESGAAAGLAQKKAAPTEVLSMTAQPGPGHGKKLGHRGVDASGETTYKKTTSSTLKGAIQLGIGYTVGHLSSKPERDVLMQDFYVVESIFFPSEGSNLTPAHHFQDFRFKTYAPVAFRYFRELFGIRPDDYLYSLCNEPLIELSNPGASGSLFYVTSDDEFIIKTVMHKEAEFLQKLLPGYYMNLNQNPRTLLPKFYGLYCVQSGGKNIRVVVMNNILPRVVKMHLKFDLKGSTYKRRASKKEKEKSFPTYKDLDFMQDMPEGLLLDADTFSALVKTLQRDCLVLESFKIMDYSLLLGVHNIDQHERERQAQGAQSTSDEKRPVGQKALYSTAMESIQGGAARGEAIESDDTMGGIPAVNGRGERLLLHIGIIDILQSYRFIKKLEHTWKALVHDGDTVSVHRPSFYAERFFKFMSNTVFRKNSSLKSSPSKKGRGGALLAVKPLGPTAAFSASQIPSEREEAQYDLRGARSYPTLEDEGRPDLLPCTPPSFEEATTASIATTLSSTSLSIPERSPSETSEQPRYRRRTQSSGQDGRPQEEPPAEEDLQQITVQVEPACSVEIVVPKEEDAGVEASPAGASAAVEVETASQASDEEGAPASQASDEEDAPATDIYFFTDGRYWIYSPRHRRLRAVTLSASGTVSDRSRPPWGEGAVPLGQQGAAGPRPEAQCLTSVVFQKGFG
HA-tagged PIPKIγi5 truncation mutant PIPKIγi5_675 (O60331-3, form named): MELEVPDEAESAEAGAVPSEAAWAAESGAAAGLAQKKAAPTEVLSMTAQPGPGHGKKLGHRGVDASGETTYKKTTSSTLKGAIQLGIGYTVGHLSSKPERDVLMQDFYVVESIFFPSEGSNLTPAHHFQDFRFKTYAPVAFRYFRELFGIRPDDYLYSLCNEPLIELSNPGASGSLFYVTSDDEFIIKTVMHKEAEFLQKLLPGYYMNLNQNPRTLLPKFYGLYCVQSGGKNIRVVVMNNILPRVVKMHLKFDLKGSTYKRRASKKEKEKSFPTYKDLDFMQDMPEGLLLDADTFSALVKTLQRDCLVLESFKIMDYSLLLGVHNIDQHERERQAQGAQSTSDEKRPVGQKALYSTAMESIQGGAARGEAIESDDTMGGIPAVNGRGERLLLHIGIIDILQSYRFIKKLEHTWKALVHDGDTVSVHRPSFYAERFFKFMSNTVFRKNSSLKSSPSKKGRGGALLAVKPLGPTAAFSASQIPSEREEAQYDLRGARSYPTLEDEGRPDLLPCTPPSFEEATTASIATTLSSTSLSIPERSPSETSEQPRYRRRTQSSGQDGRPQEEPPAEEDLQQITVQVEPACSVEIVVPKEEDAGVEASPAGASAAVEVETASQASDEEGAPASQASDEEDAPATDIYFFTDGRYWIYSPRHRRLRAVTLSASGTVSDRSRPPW
UniProt P46937: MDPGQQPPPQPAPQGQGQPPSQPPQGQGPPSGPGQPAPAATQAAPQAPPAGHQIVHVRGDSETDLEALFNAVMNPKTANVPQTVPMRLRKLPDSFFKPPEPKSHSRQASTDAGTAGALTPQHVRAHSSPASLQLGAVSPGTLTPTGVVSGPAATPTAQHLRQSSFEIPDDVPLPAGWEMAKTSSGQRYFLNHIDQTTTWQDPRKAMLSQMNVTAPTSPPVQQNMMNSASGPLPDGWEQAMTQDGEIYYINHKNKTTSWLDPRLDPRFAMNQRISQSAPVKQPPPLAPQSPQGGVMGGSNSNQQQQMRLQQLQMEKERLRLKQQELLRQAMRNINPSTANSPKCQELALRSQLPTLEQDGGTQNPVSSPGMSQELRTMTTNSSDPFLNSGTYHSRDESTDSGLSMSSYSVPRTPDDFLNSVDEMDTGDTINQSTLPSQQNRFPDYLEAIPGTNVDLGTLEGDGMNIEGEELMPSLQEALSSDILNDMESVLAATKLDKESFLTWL

No constants are given. Whether binding was seen depends on the method and setting. For part of these data: In cells and extracts the contact can be indirect. Some entries that bind do so weakly or less than the wild type.

In the case of “HA-YAP1-N (1-263) (from UniProt P46937 1-263) (domain or fragment)”, in experiment [1], the binding entry is recorded as “no binding”. As for “endogenous PIPKIγi5 (from UniProt O60331-3 1-707) (enzyme)”, in experiment [2], the binding entry is on record as “binds”.

In the case of “HA-YAP1-C (264-504) (from UniProt P46937 264-504) (domain or fragment)”, the binding entry in experiment [1] was “binds”. As to “FLAG-tagged YAP1 (Yes-associated protein 1) (from UniProt P46937 1-504)”, the binding entry in experiment [3] is given as “binds”; in experiment [4], “binds”; in experiment [5] it was “binds weakly”; in experiment [1] it was “binds”.

“purified recombinant HA-PIPKIγi5 (from UniProt O60331-3 1-707) (enzyme)”: the binding entry in experiment [6] was “binds”.

Consider “purified recombinant FLAG-YAP1 (YAP1 human recombinant protein, OriGene) (from UniProt P46937 1-504)”, for which, in experiment [7], the binding result is reported as “binds”.

The record behind these values is article PMC12444467.
